Literature values in US20170209364A1, “Method For Treating The Appearance Of Thinning Hair” (priority 2016, published 2017).
At least one structure is not confirmed: it was looked up by name or label, or the drawing left a doubt.

Conditions: topical use; cited from earlier work

SMILES: Nc1cc(N2CCCCC2)nc(N)[n+]1[O-] [minoxidil]
- failure rate: greater than 50%
